Results published in paper doi:10.1101/2024.08.06.606911.
Results are given in words; binding and its absence hold for the method and conditions named. In cells and extracts the contact can be indirect. Some entries that bind do so weakly or less than the wild type.

Amino acid sequences for entries named in this document (tags omitted).
UniProt Q96J02: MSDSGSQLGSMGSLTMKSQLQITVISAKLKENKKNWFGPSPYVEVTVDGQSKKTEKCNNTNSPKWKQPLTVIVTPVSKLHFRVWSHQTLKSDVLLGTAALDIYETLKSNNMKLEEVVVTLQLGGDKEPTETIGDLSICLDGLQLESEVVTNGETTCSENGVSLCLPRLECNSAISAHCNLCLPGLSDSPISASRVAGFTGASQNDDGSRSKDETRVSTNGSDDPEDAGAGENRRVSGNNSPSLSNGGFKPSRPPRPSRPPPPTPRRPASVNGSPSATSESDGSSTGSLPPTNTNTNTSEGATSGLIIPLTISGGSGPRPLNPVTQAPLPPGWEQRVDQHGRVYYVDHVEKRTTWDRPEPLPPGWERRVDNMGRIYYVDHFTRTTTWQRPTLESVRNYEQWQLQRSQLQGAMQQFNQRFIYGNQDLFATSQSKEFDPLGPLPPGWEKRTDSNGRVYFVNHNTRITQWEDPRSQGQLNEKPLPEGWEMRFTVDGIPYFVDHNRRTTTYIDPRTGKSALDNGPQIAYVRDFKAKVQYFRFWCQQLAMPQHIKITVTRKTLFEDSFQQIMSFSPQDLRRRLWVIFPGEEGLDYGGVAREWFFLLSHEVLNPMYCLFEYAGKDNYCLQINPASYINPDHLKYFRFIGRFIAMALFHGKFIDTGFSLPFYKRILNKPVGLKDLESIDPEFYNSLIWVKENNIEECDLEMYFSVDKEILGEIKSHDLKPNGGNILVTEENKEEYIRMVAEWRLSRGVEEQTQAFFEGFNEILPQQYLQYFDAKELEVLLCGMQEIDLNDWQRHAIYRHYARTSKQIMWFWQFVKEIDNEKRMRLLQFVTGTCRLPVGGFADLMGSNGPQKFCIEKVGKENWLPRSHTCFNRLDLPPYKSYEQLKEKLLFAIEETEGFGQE

Molecular target: Flag-tagged ITCH (UniProt Q96J02)
Experiment: co-IP

B1: JUND, endogenous (protein, UniProt P17535 1-347)
chain: METPFYGDEALSGLGGGASGSGGSFASPGRLFPGAPPTAAAGSMMKKDALTLSLSEQVAAALKPAAAPPPTPLRADGAPSAAPPDGLLASPDLGLLKLASPELERLIIQSNGLVTTTPTSSQFLYPKVAASEEQEFAEGFVKALEDLHKQNQLGAGAAAAAAAAAAGGPSGTATGSAPPGELAPAAAAPEAPVYANLSSYAGGAGGAGGAATVAFAAEPVPFPPPPPPGALGPPRLAALKDEPQTVPDVPSFGESPPLSPIDMDTQERIKAERKRLRNRIAASKCRKRKLERISRLEEKVKTLKSQNTELASTASLLREQVAQLKQKVLSHVNSGCQLLPQHQVPAY
  binding: binds
